Test results from PubChem BioAssay AID504444 (National Center for Advancing Translational Sciences (NCATS), 2011).
The campaign covered roughly 360,000 compounds. About 7,500 (2.1%) were called active. Inconclusive results, whose numbers are uncertain, are shown with a selection of clear calls. Calls come from the whole dose curve; as a rule, active = well fitted inhibition curve with a large enough effect; inconclusive = small, poorly fitted or top-dose-only effect, or effect the other way; inactive = flat fitted curve, though single readings scatter. Potencies beside an inconclusive call are fits to weak or partial responses and may not hold up.

assay: Nrf2 qHTS screen for inhibitors; settings: A549 ARE-Fluc reporter, luciferase luminescence, 18-24 h; activity change, negative = inhibition: at 46 µM (top of the series); note: nearly all actives have a fitted effect of over 60% in size
Summary of the method: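 A549 ARE_Fluc cells, 5000/well, 5% FBS OPTI-MEM; compounds in dose-response, 18-24 h at 37 °C/5% CO2; CellTiter-Fluor viability read (Ex 405/Em 525), then BugLite luciferase luminescence = Nrf2 activity.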
% is set by controls: 0 for no effect and ±100 for the full control effect; potency is the fitted concentration of half-maximal effect.

Row | SMILES | activity change, negative = inhibition | Potency
1 | O=C(NC(=S)Nc1ccc(F)c(Cl)c1)C1CC1 | inactive: 10.1% | –
2 | Cc1ccc(SCC(=O)Nc2ccc(-c3nnc(-c4ccco4)o3)cc2)cc1 | – | inconclusive: 4.61 µM [activator, single point]
3 | Cc1ccc(S(=O)(=O)CCc2nc3ccccc3[nH]2)cc1 | – | inconclusive: 29.1 µM [activator, single point]
4 | CCOc1ccc(S(=O)(=O)N/N=C\c2ccc3c(c2)OCO3)cc1 | – | inconclusive: 13 µM [falling, partial curve, poor fit]
5 | Cc1ncc(COCc2ccccc2)c(CO)c1OCc1ccccc1 | inactive: 15.1% | –
6 | O=C(CN1CCOCC1)Nc1ccccc1Sc1ccc(Cl)cc1 | – | active: 29.1 µM
7 | C/C(CC(=O)Nc1ccc(OCc2ccccc2)cc1)=N\NC(=O)C(=O)Nc1ccc(C)c(Cl)c1 | – | inconclusive: 29.1 µM [falling, single point]
8 | Cc1ccc(C(c2nnnn2C2CCCC2)N2CCc3ccccc32)cc1 (stereo not drawn) | inactive: 11.1% | –
9 | O=C(N1CCN(c2cccc(Cl)c2)CC1)C1(S(=O)(=O)c2ccc(Cl)cc2)CC1 | – | inconclusive: 13 µM [falling, partial curve, poor fit]
10 | CC1CCN(CC(=O)N2CCCc3c2c(=O)oc2ccc(OCc4ccccc4)cc32)CC1 | – | inconclusive: 29.1 µM [falling, single point]
11 | COc1ccccc1NC(=O)c1nc(S(=O)(=O)Cc2ccccc2)ncc1Cl | – | inconclusive: 32.6 µM [falling, single point]
12 | CC1c2cc3c(cc2CCN1CC(=O)Nc1ccccc1)OCCCO3 (stereo not drawn) | – | active: 18.4 µM
13 | COc1ccc(S(=O)(=O)n2nc(-c3ccc(Cl)cc3)cc2N)cc1OC | – | inconclusive: 29.1 µM [falling, single point]
14 | O=C(CSc1nc(-c2ccc(Cl)cc2)cs1)Nc1cccc([N+](=O)[O-])c1 | – | active: 16.4 µM
15 | COC(=O)/C=C1/N/C(=N\c2nc(C)cc(C)n2)N(c2ccccc2)C1=O | – | inconclusive: 29.1 µM [activator, single point]
16 | Cc1ccc(S(=O)(=O)Nc2cc(C(F)(F)F)ccc2N2CCOCC2)c(C)c1 | – | inconclusive: 29.1 µM [falling, partial curve, poor fit]
17 | c1ccc(-c2noc(CC3CCCCC3)n2)nc1 | – | inconclusive: 9.2 µM [activator, partial curve]
18 | C=C(C)CNC(=O)c1ccc2nc(Cc3ccc(OC)cc3)oc2c1 | – | inconclusive: 2.91 µM [activator, full curve]
19 | Cc1ccccc1S(=O)(=O)Cc1ccc(C(=O)NC2CCCC2)o1 | – | inconclusive: 9.2 µM [activator, partial curve, poor fit]
20 | CC(=O)O/N=C(\N)Cc1ccc(-c2csnn2)cc1 | – | inconclusive: 29.1 µM [falling, single point]
21 | CC1=C(C(=O)OCc2ccccc2)C(c2ccc(N(C)C)cc2)NC(=O)N1 (stereo not drawn) | – | inconclusive: 0.291 µM [falling, full curve, poor fit]
22 | COc1cc(OC)c(NC(=O)Nc2nnc(N(C)C3CCCCC3)s2)cc1Cl | inactive: 0.448% | –
23 | Cc1oc2c(C)c(O)ccc2c(=O)c1-c1cnn(-c2ccccc2)c1 | inactive: -6.68% | –

Grouped by structure, those above with fluorine.
Row | SMILES | activity change, negative = inhibition | Potency
1 | O=C(NC(=S)Nc1ccc(F)c(Cl)c1)C1CC1 | inactive: 10.1% | –
16 | Cc1ccc(S(=O)(=O)Nc2cc(C(F)(F)F)ccc2N2CCOCC2)c(C)c1 | – | inconclusive: 29.1 µM [falling, partial curve, poor fit]

Compounds 15–16 from above:
Row | SMILES | activity change, negative = inhibition | Potency
15 | COC(=O)/C=C1/N/C(=N\c2nc(C)cc(C)n2)N(c2ccccc2)C1=O | – | inconclusive: 29.1 µM [activator, single point]
16 | Cc1ccc(S(=O)(=O)Nc2cc(C(F)(F)F)ccc2N2CCOCC2)c(C)c1 | – | inconclusive: 29.1 µM [falling, partial curve, poor fit]

(listing goes on)

Row | SMILES | activity change, negative = inhibition | Potency
24 | CCn1cc([N+](=O)[O-])c(C(=O)Nc2ccc(Cn3nc(C)cc3C)cc2)n1 | – | inconclusive: 0.461 µM [falling, partial curve, poor fit]
25 | S=C(NCCCc1cnc[nH]1)NCCCN(Cc1ccc(Cl)cc1)c1ccc(Br)cc1 | – | inconclusive: 2.59 µM [falling, partial curve, poor fit]
26 | O=S(=O)(NCC1CCN(S(=O)(=O)c2ccccc2)CC1)c1ccccc1 | – | inconclusive: 16.4 µM [falling, single point]
27 | O=C1Nc2ccc(Br)cc2C1Cc1ccccc1F (stereo not drawn) | inactive: -19.6% | –
28 | CSC1=NC(C(Cl)(Cl)Cl)N=C(c2ccccc2)N1 (stereo not drawn) | – | inconclusive: 4.11 µM [activator, full curve, poor fit]
29 | COc1ccccc1/C=C/c1nc(S(=O)(=O)c2ccccc2)c(N2CCC(C(N)=O)CC2)o1 | – | inconclusive: 11.6 µM [falling, partial curve]
30 | C=CCNc1oc(-c2ccc(Cl)cc2)nc1C#N | – | inconclusive: 32.6 µM [falling, partial curve, poor fit]
31 | COc1ccc(-n2cc(C(=O)NCCc3ccc(C)cc3)c3ccccc3c2=O)cc1 | – | active: 18.4 µM
32 | Cc1ccc(C)c(C(=O)COC(=O)c2ccccc2N2C(=O)C3C4CCC(C4)C3C2=O)c1 (stereo not drawn) | inactive: -7.24% | –
33 | CC(O)Cn1c(=O)c2c(nc(Br)n2Cc2ccccc2)n(C)c1=O (stereo not drawn) | – | inconclusive: 10.3 µM [falling, partial curve, poor fit]
34 | CCOC(=O)C1(CCc2ccccc2)CCN(Cc2c(O)cccc2OC)CC1 | inactive: -12.1% | –
35 | CCCC(=O)Nc1cccc(NC(=O)CN2CCN(c3ccccc3OC)CC2)c1 | – | inconclusive: 11.6 µM [falling, partial curve, poor fit]
36 | Nc1cccc(-c2nc3ccc(C(=O)c4ccccc4)cc3[nH]2)c1 | – | inconclusive: 13 µM [activator, partial curve]
37 | CC(C)(C)C(=O)NC1(C(F)(F)F)NC(=O)N(CCc2ccccc2)C1=O (stereo not drawn) | – | inconclusive: 8.2 µM [activator, partial curve]
38 | O=C(CN(C(=O)CCC(=O)Nc1ccccn1)c1ccc(F)cc1)NCCc1ccccc1 | – | inconclusive: 23.1 µM [falling, partial curve, poor fit]
39 | CC(C)c1ccc(-c2c(C#N)c(N)nc(SCC(=O)N3CCCCC3)c2C#N)cc1 | – | inconclusive: 23.1 µM [falling, single point]
40 | CCCn1c(-c2ccc[nH]c2=O)nc2cc(C)c(C)cc21 | – | inconclusive: 29.1 µM [activator, single point]
41 | COc1cc(-c2cc(N)n(S(=O)(=O)c3ccccc3)n2)cc(OC)c1OC | – | inconclusive: 0.651 µM [falling, partial curve, poor fit]
42 | CCC(=O)N(Cc1cc2cc(OC)ccc2[nH]c1=O)c1cc(C)ccc1C | – | inconclusive: 25.9 µM [activator, single point]
43 | COc1ccc(NC(=S)N2CCN(S(=O)(=O)c3ccc(F)cc3)CC2)cc1 | inactive: 2.66% | –
44 | Cc1csc2nc(O)c(C(=O)NCCCc3ccccc3)c(=O)n12 | – | inconclusive: 13 µM [falling, partial curve, poor fit]
45 | COc1ccc2nc(NC(=O)C3=NN(c4ccccc4)C(=O)CC3)sc2c1 | – | inconclusive: 23.1 µM [activator, partial curve, poor fit]
46 | Cc1cccc(NC(=O)c2cc(-c3cccnc3)nc3c(C)cccc23)n1 | – | inconclusive: 16.4 µM [falling, partial curve, poor fit]

Row | SMILES | activity change, negative = inhibition | Potency
47 | N/C(=N\NC(=O)Nc1ccccc1)c1ccccn1 | – | inconclusive: 2.91 µM [activator, full curve]
48 | O=C(Nc1ccc2c(c1)OCO2)c1ccc([N+](=O)[O-])cc1[N+](=O)[O-] | – | inconclusive: 29.1 µM [activator, single point]
49 | COc1cc(O)c(CCC(=O)c2ccc(OC)c(OC)c2)c(OC)c1 | – | inconclusive: 16.4 µM [falling, single point]
50 | NS(=O)(=O)OCC(Cc1ccccc1)N1C(=O)c2ccccc2C1=O (stereo not drawn) | inactive: 3.89% | –
51 | COc1cccc(C(=O)Nc2sc3c(c2C(=O)O)CCCC3)c1 | – | active: 5.8 µM
52 | O=C(N/N=C/c1ccc2nccnc2c1)c1ccncc1 | – | inconclusive: 0.517 µM [falling, full curve, poor fit]
53 | COc1ccc2cc(C#N)c(N3CCN(C(=O)c4ccccc4C)CC3)nc2c1 | inactive: -25.6% | –
54 | CCOc1ccccc1CNc1ncnc2onc(-c3ccc(F)cc3)c12 | – | inconclusive: 3.26 µM [activator, partial curve, poor fit]
55 | CC1(C)Cc2c(sc(NC(=O)c3ccccc3Cl)c2C(=O)O)CO1 | – | inconclusive: 18.4 µM [falling, single point]
56 | CCOc1ccc2oc(C(=O)N(CC)CC(=O)Nc3ccc(NC(C)=O)cc3)c(C)c2c1 | – | inconclusive: 29.1 µM [falling, single point]
57 | COc1ccc(SN=C2C(C)=CC(=O)C=C2C)cc1 | – | inconclusive: 29.1 µM [activator, single point]
58 | CCN1CCC(N(Cc2ccc(F)cc2)C(=O)Nc2cc(C)ccc2C)CC1 | inactive: 0.308% | –
59 | N#Cc1cnc2nc(SCc3ccccc3)nn2c1 | – | inconclusive: 20.6 µM [activator, partial curve]
60 | Cc1cc(C(=O)NN=C2CC(=O)CC(C)(C)C2)c(C)o1 | – | inconclusive: 4.11 µM [activator, full curve, poor fit]
61 | COc1ccc(C(=O)CCC(=O)N2CCN(c3cccc(Cl)c3)CC2)cc1 | – | inconclusive: 20.6 µM [falling, partial curve, poor fit]
62 | O=C(NCC1CC1)C1(S(=O)(=O)c2ccccc2)CC=CC1 | inactive: -16.5% | –
63 | CN(CCCC1CCCC1)C(=O)CCc1nnc(-c2ccccc2)o1 | – | inconclusive: 20.6 µM [activator, single point]
64 | Cc1cc(-c2ccc(S(=O)(=O)Nc3ccccc3C)cc2)on1 | – | inconclusive: 29.1 µM [falling, single point]
65 | CC(C)Cn1c(SC(C)C(=O)Nc2ccc3c(c2)OCCO3)nc2ccccc2c1=O (stereo not drawn) | inactive: -20.9% | –
66 | COC(=O)c1sc(N)c(C(=O)OC)c1Cn1ncc(Cl)c(Cl)c1=O | inactive: 0.906% | –
67 | O=C(Nc1ccc(F)cc1)C1CCN(c2nc3ccccc3nc2C(F)(F)F)CC1 | inactive: 0% | –
68 | Cc1ccccc1C1c2[nH]c3ccccc3c2CCN1CCCn1cccn1 (stereo not drawn) | – | inconclusive: 10.3 µM [activator, partial curve]
